Experimental data published in article PMC4607164.
No constants are given. Whether binding was seen depends on the method and setting. Some results given as binding are weak or reduced against the parent protein; the word gives no strength.

T1: MEF35 (Mitochondrial Editing Factor 35), DYW subgroup PLS-class PPR protein encoded by locus At4g14050 (Arabidopsis thaliana) (UniProt O23266)
T1 sequence: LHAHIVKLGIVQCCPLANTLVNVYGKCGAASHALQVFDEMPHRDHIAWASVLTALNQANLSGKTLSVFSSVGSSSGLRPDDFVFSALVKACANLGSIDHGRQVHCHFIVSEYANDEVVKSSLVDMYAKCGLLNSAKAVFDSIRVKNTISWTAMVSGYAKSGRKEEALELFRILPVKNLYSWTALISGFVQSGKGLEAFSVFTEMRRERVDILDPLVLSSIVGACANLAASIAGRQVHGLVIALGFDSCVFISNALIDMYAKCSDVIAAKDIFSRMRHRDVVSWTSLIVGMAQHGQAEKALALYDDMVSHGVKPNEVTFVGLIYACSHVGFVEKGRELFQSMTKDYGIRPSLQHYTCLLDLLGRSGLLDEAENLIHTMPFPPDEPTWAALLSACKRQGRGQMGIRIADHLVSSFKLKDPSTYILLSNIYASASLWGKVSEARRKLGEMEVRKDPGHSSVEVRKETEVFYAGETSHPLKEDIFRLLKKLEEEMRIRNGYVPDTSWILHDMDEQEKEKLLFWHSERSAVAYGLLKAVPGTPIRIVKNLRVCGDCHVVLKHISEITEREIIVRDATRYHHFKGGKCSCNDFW

B1: MORF1 (multiple site organellar RNA editing factor 1) (protein, UniProt O49429 61-419)
chain: FSTRQYKLYKEGDEITEDTVLFEGCDYNHWLITMDFSKEETPKSPEEMVAAYEETCAQGLGISVEEAKQRMYACSTTTYQGFQAIMTEQESEKFKDLPGVVFILPDSYIDPQNKEYGGDKYENGVITHRPPPIQSGRARPRPRFDRSGGGSGGPQNFQRNTQYGQQPPMQGGGGSYGPQQGYATPGQGQGTQAPPPFQGGYNQGPRSPPPPYQAGYNQGQGSPVPPYQAGYNQVQGSPVPPYQGTQSSYGQGGSGNYSQGPQGGYNQGGPRNYNPQGAGNFGPASGAGNLGPAPGAGNPGYGQGYSGPGQEQNQTFPQADQRNRDWNNNNPAGQPGSDQVRSRSIMNLASFFFDILIRH
B2: MORF2 (multiple site organellar RNA editing factor 2) (protein, UniProt O22793 1-219)
chain: MALPLSGTRHLTRALLSNVTLMAPPRIPSSVHYGGSRLGCSTRFFSIRCGANRSGSTYSPLNSGSNFSDRPPTEMAPLFPGCDYEHWLIVMDKPGGEGATKQQMIDCYIQTLAKVVGSEEEAKKRIYNVSCERYLGFGCEIDEETSTKLEGLPGVLFVLPDSYVDPENKDYGAELFVNGEIVQRSPERQRRVEPQPQRAQDRPRYNDRTRYSRRRENTR
B3: MORF8 (multiple site organellar RNA editing factor 8) (protein, UniProt Q9LKA5 57-395)
chain: GGLVSVKGLSTQATSSSLNDPNPNWSNRPPKETILLDGCDFEHWLVVVEPPQGEPTRDEIIDSYIKTLAQIVGSEDEARMKIYSVSTRCYYAFGALVSEDLSHKLKELSNVRWVLPDSYLDVRNKDYGGEPFIDGKAVPYDPKYHEEWIRNNARANERNRRNDRPRNNDRSRNFERRRENMAGGPPPQRPPMGGPPPPPHIGGSAPPPPHMGGSAPPPPHMGQNYGPPPPNNMGGPRHPPPYGAPPQNNMGGPRPPQNYGGTPPPNYGGAPPANNMGGAPPPNYGGGPPPQYGAVPPPQYGGAPPQNNNYQQQGSGMQQPQYQNNYPPNRDGSGNPYQG

These binders were tested against T1, MEF35 (Mitochondrial Editing Factor 35), DYW subgroup PLS-class PPR protein encoded by locus At4g14050 (Arabidopsis thaliana) (assay: two-hybrid; GAL4 system (Clontech), yeast PJ69-4A; bait in pGBKT7, prey in pGADT7; drop tests of cultures at OD600 0.1 and 0.3 on SD medium lacking T, L, H, A, in parallel with 2.5 mM 3AT; done at least twice).

Row | binding | Binder
1 | binds | B1
2 | binds | B2
3 | binds | B3
